According to patent US20110281811A1, “Use Of Leukotriene Inhibitors For Treating Lung Diseases In Prematurely Born Infants” (priority 2008, published 2011):
For at least one compound, name, drawing or mass did not settle the structure.

Tested on: prematurely born infants with bronchopulmonary dysplasia
Assay type: in vivo
Conditions: four patients, weight 460 g to 890 g; 1-2 mg/kg body weight/d over 3-12 weeks

With `CC(C)(O)c1ccccc1CC[C@@H](SCC1(CC(=O)O)CC1)c1cccc(/C=C/c2ccc3ccc(Cl)cc3n2)c1` [montelukast] the pulmonary function was “In all of the infants, the pulmonary function improved”.
